This note sets out measurements from US20150073033A1, “BIOMARKERS FOR CANCER CHARACTERIZATION AND TREATMENT” (Board of Regents, The University of Texas System, priority 2011, published 2015).

Amino acid sequences for entries named in this document (tags omitted). A change or cut given only in a name is not applied to a line headed by its entry.
UniProt P14618: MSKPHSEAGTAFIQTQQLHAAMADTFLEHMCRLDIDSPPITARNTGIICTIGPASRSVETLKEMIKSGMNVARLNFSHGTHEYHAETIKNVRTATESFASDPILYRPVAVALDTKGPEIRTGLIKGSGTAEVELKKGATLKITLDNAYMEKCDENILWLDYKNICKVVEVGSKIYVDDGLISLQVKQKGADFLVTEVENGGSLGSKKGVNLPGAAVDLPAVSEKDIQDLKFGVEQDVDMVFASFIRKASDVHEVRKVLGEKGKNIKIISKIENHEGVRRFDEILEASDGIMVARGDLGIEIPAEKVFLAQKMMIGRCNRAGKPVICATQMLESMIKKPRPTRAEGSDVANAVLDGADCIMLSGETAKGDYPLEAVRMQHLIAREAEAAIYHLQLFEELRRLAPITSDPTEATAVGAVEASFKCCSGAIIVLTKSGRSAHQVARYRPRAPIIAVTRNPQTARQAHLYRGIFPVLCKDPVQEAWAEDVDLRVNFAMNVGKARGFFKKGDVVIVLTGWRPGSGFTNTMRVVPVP
UniProt O43683: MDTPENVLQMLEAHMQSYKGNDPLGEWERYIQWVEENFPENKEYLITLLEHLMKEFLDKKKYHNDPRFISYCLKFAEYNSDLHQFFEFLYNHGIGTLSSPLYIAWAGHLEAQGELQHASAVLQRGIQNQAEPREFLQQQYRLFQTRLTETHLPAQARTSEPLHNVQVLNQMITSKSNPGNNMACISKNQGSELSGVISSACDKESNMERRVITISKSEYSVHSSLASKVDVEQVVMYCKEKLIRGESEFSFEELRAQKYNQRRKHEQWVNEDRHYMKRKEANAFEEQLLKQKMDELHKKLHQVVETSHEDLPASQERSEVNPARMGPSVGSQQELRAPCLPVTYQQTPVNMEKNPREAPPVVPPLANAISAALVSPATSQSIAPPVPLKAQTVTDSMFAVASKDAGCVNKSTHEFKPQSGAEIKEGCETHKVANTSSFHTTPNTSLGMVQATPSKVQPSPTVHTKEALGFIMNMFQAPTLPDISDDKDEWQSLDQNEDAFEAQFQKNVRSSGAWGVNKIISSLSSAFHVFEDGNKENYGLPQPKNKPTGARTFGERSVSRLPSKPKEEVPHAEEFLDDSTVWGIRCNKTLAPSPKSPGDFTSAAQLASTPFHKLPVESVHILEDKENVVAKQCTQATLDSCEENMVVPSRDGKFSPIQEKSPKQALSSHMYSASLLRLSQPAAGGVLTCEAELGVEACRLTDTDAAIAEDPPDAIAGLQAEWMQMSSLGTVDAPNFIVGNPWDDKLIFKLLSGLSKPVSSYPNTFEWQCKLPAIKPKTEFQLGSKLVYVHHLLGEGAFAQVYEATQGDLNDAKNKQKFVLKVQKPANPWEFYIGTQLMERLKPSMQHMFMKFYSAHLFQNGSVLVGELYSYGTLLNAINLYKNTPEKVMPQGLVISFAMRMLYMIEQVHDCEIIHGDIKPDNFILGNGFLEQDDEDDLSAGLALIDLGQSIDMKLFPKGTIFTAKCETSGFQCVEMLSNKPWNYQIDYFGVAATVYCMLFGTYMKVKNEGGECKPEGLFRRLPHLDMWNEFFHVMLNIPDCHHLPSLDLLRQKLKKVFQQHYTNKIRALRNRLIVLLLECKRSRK
UniProt O43684: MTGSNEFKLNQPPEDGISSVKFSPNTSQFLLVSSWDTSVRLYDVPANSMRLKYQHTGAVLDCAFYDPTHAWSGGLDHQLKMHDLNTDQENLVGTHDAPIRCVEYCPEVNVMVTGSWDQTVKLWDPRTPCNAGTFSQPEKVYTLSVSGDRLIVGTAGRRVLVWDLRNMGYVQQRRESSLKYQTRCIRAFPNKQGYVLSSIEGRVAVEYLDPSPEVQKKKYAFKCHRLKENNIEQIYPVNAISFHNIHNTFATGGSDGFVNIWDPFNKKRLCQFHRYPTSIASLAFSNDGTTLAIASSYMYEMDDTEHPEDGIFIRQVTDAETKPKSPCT
UniProt Q02156: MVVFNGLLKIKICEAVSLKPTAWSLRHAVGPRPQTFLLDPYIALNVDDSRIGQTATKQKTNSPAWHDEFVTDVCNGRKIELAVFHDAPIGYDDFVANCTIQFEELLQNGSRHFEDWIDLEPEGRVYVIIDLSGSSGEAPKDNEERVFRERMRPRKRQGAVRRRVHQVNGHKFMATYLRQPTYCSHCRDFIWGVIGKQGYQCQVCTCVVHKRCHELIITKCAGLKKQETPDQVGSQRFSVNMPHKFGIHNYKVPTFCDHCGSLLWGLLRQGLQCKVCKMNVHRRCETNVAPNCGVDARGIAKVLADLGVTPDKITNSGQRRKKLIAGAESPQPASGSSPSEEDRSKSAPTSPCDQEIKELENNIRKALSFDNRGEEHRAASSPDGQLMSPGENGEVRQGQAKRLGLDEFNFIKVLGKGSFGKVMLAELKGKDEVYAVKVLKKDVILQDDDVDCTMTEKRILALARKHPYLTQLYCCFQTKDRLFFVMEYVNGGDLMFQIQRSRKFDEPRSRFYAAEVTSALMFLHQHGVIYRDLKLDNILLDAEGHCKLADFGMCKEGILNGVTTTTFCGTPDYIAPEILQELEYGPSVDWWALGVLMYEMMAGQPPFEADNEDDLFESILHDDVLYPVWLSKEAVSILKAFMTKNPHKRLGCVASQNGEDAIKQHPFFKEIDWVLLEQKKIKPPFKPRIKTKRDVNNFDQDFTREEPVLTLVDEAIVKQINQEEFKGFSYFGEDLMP
UniProt P52294: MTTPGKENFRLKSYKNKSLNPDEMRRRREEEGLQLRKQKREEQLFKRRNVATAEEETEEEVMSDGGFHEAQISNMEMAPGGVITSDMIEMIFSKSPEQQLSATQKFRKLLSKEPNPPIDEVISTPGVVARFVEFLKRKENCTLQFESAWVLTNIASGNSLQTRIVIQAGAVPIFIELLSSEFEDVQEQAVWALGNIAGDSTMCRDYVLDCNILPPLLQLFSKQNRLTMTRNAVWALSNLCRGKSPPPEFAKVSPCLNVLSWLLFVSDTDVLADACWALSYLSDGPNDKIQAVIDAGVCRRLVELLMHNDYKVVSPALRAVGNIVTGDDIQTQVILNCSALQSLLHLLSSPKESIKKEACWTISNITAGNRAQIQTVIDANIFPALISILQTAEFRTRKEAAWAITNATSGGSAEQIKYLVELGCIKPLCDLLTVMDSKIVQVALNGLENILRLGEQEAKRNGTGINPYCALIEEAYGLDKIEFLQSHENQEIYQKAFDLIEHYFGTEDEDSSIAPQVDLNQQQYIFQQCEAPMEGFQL

Results are given in words; binding and its absence hold for the method and conditions named. In cells and extracts the contact can be indirect. Some results given as binding are weak or reduced against the parent protein; the word gives no strength.

Assay [1] has as its target T1, endogenous IKKβ (U87/EGFR or U251 cells) (human) (UniProt O14920).
T1 sequence (looked up): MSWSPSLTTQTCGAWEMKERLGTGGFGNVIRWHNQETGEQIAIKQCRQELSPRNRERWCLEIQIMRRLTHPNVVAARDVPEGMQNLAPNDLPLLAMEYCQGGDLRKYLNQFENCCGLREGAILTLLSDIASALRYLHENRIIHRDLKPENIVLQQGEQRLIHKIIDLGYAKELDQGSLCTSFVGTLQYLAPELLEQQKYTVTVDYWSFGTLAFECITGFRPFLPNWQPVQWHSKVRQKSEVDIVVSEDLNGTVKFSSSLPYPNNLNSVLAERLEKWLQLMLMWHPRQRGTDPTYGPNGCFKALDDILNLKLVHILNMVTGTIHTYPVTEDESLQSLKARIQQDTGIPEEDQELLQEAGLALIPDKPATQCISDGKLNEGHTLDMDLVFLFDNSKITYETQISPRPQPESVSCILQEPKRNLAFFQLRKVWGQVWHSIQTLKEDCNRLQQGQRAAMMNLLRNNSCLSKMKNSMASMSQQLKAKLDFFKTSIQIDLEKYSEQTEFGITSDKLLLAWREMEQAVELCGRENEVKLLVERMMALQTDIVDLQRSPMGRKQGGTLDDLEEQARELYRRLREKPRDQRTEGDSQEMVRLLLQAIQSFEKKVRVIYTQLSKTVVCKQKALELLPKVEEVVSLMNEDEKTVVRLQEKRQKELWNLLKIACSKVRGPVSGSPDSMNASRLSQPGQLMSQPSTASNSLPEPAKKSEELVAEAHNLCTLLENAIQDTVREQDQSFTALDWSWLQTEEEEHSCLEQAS
Nature of the assay: co-IP of membrane fractions, EGF-treated cells.

In assay [2] the target is FLAG-tagged wild-type PKM2 (human) (UniProt P14618). The assay can be described thus: GST pull-down from lysates of EGF-treated U87/EGFR cells.
The target of assay [3] is purified recombinant His-Bub1 (UniProt O43683). Nature of the assay: GST pull-down, purified proteins.
Assay [4] concerns the target purified recombinant GST-Bub3 (wild type) (UniProt O43684). The assay can be described thus: GST pull-down and co-IP (figure legend).
For assay [5] the target is unchanged. The assay can be described thus: GST pull-down, purified recombinant proteins.

Take “endogenous PKCε (U87/EGFR or U251 cells) (from UniProt Q02156 1-737) (enzyme)”: in assay [1], the binding entry is given as “binds”.
With “purified GST-importin α5 (from UniProt P52294 1-538)”, the binding result in assay [2] is “binds”.
For “purified recombinant GST-Bub3 (wild type) (from UniProt O43684 1-328)”, the binding result in assay [3] is “binds”.
With “purified recombinant GST-Bub3 Y207F (from UniProt O43684 1-328)”, the binding result in assay [3] was “binds”.
Consider “purified recombinant His-PKM2 (wild type) (from UniProt P14618 1-531) (enzyme)”, for which the binding result in assay [4] and in assay [5] was “binds” each time.
